Values joined by “and” are separate entries in the source; they are usually repeats but may differ in a detail not shown here. Equal values may be shown once. The list shows a part of the results.
Assay: hypoxia reporter signal reduction in M. tuberculosis – fluorescence, absorbance growth readout, primary screen (AID 1159583)
Conditions: M. tuberculosis hypoxia-regulated fluorescent reporter, measured here: M. tuberculosis growth (absorbance), stronger effect = higher value, concentration not given here

Row | Structure (SMILES) | growth inhibition
1 | CN(C(=O)Cc1ccc(Cl)c(Cl)c1)C1CCCCC1N1CCCC1 (centres undefined) | -1.08% and 4.01% and 3.08%
2 | CN(C)C(=O)c1c([N+](=O)[O-])cc([N+](=O)[O-])cc1[N+](=O)[O-] | 5.47%
3 | CC1CCN(C(=O)Oc2c(Cl)cc(Cl)c3cccnc23)CC1 | 11.1%
4 | C[N+]1=C2C=CC=CC=C2SC12C([N+](=O)[O-])=CC([N+](=O)[O-])=C[C-]2[N+](=O)[O-] (centres undefined) | 10.2%
5 | COc1ccccc1OP(C)(=O)Nc1ccccc1Br (centres undefined) | 6.63%
6 | Nc1ccc([As](=O)(O)c2ccc(N)cc2)cc1 | 9.24%
7 | CC(C)(C)c1ccc(OP(C)(=O)O)cc1 | 10.4%
8 | CP(=O)(Nc1ccc(Cl)cc1)Oc1ccc(F)cc1 (centres undefined) | 13.4%
9 | O=C(OCCCN1CCCC1)C(O)(c1ccccc1)C1CCCCC1 (centres undefined) | -9.77%
10 | CC(=O)N1C2C3N(C(C)=O)C1C1N(C(C)=O)C(C(N1C(C)=O)N3C(C)=O)N2C(C)=O | 2.48%
11 | CCc1ccc(OP(C)(=O)Nc2cccnc2)cc1 (centres undefined) | 12%
12 | O=[N+]([O-])c1cc([N+](=O)[O-])c(CCNc2ccccc2)c([N+](=O)[O-])c1 | 12.9%
13 | CCc1nc2c(n1)c1c(non1O)c1c2no[n+]1[O-] | 9.74%
14 | Cc1ccc(NP(=O)(Oc2ccccc2)Oc2ccccc2)nc1 | 0.154%
15 | COc1ccc(C2=NCC(CBr)S2)cc1 (centres undefined) | -12.3%
16 | COc1ccc(OP(C)(=O)Nc2ccc(Br)cc2)cc1 (centres undefined) | 4.24%
17 | CCN(CC)CC(O)COC(=O)C(O)(c1ccccc1)C1CCCCC1 (centres undefined) | 6.51%
18 | O=[N+]([O-])c1cccc(NC2=NCC(CBr)S2)c1 (centres undefined) | -1.69%
19 | O=C(O)CNc1ccc([As](=O)(O)O)cc1 | -0.348%
20 | CC(C)(C)C(=O)NC(Sc1ccncn1)C(Cl)(Cl)Cl (centres undefined) | -5.97%
21 | O=[N+]([O-])c1ncn(CCn2ncnc2[N+](=O)[O-])n1 | -1.97%
22 | O=C(Nc1cc([As](=O)(O)O)ccc1O)c1ccccc1 | 1.65%
23 | CP(=O)(OC12CC3CC(CC(C3)C1)C2)OC12CC3CC(CC(C3)C1)C2 | 6.77%

Row | Structure (SMILES) | growth inhibition
24 | Nc1ccc2c(ccc3cccnc32)n1.O=[N+]([O-])c1cc([N+](=O)[O-])c(O)c([N+](=O)[O-])c1 | -0.266%
25 | O=P1(N(CCCl)CCCl)OCCCS1 (centres undefined) | 11.7%
26 | CCN(N=Nc1nonc1N)c1nonc1N | 10.2%
27 | CP(=O)(Nc1ccc(Cl)cc1Cl)Oc1ccccc1 (centres undefined) | 1.54%
28 | COc1ccccc1OP(C)(=O)Nc1ccc(C)c(C)c1 (centres undefined) | 4.26%
29 | Cc1ccc(NP(=O)(Oc2ccccc2F)Oc2ccccc2F)nc1 | -0.485%
30 | Cc1cc(SC(NC(=O)c2ccc(F)cc2)C(Cl)(Cl)Cl)ncn1 (centres undefined) | 11.8%
31 | CCOP(=O)(Nc1ccccc1)OCC | 7.07%
32 | CC(C)=NN=C(N)N[N+](=O)[O-] | 0.771%
33 | CCN(CC)CC(C)C(C)OC(=O)C(O)(c1ccccc1)c1ccccc1 (centres undefined) | 4.01%
34 | CCCC1OP(N)(=O)OCC1CC (centres undefined) | 8.43%
35 | CC(=O)Nc1ccc([As](=O)(O)O)cc1 | -8.33%
36 | O=C(O)c1ccccc1[As](=O)(O)O | 3.23%
37 | O=P(Nc1nc2ccc(Cl)cc2s1)(c1ccccc1)c1ccccc1 | 0.0124%
38 | Cc1cc(C)cc(OP(C)(=O)Nc2cccc(C(F)(F)F)c2)c1 (centres undefined) | -7.91%
39 | O=C1C(O)=C([N+](=O)[O-])C(=O)C(O)=C1[N+](=O)[O-] | 6.59%
40 | COc1ccccc1OP(C)(=O)Nc1ccc(C)cc1C (centres undefined) | 2.73%
41 | CCc1ccc(OP(C)(=O)O)cc1 | 4.72%
42 | Nc1cc(N)c2nonc2c1[N+](=O)[O-] | 9.24%
43 | Cc1c(NP(C)(=O)Oc2ccc(C(C)C)cc2)c(=O)n(-c2ccccc2)n1C (centres undefined) | 11.8%
44 | O=[N+]([O-])c1cc([N+](=O)[O-])c(Nc2ccccn2)c([N+](=O)[O-])c1 | 30.4%
45 | CC(C)CC(=O)NC(Sc1ccc(Cl)cc1)C(Cl)(Cl)Cl (centres undefined) | 2.23%
46 | O=C(NC(Sc1ccncn1)C(Cl)(Cl)Cl)c1ccccc1 (centres undefined) | 10.2%

Row | Structure (SMILES) | growth inhibition
47 | Oc1ccccc1CNc1ccccn1 | 9.71%
48 | Cc1ccc(OP(=O)(Nc2nccs2)Oc2ccc(C)cc2)cc1 | 9.95%
49 | COc1ccccc1OP(=O)(Nc1ccc(C)cn1)Oc1ccccc1OC | 1.23%
50 | COc1ccc(OP(C)(=O)Nc2ccccn2)cc1 (centres undefined) | -0.774%
51 | CN1CCCC(OC(=O)C(c2ccccc2)c2ccccc2)C1 (centres undefined) | 7.16%
52 | CN(C)CCOC(=O)C(O)(c1ccccc1)C1CCCC1 (centres undefined) | 7.89%
53 | Clc1ccc(Cl)c(NC2=NCC(CBr)S2)c1 (centres undefined) | -1.97%
54 | NC(=O)c1cc([N+](=O)[O-])cc([N+](=O)[O-])c1N | 4.6%
55 | COc1ccccc1OP(C)(=O)Nc1ccc(Br)cc1 (centres undefined) | 15.9%
56 | CC(=O)Nc1ccc(Oc2c([N+](=O)[O-])cc([N+](=O)[O-])cc2[N+](=O)[O-])cc1 | 1.54%
57 | CC(=O)Nc1ccc([As](=O)(O)O)c(O)c1 | 8.02%
58 | O=C(OC1CN2CCC1CC2)c1ccc([N+](=O)[O-])cc1 (centres undefined) | 8.76%
59 | CC(=O)c1ccc(N2CC2c2ccncc2)cc1 (centres undefined) | 2.75%
60 | O=C(OCCN1CCN(CCOCc2ccccc2)CC1)C(O)(c1ccccc1)c1ccccc1 | 1.5%
61 | Cc1ccccc1CN(C)C(=O)COC(=O)C(O)(c1ccccc1)c1ccccc1 | -7.71%
62 | CP(=O)(Nc1ccccc1F)Oc1ccccc1 (centres undefined) | 7.9%
63 | CCc1cc(O)c([N+](=O)[O-])c(C)c1[N+](=O)[O-] | 9.82%
64 | CC(C)(C)C(=O)NC(Sc1ccccc1)C(Cl)(Cl)Cl (centres undefined) | 4.16%
65 | CN(C(=O)Cc1ccccc1)C1CC[C@]2(CCCO2)CC1N1CCCC1 (some centres undefined) | 13.3%
66 | CCOc1ccc(C2=NCC(CBr)S2)cc1 (centres undefined) | -3.71%
67 | O=P1(Nc2nc3ccc(Cl)cc3s2)COc2ccccc2O1 (centres undefined) | 9.21%
68 | CP(=O)(Nc1ccccc1)Oc1ccc(F)cc1 (centres undefined) | 15.8%
69 | O=[N+]([O-])c1cc([N+](=O)[O-])c(OC2CCCCC2O)c([N+](=O)[O-])c1 (centres undefined) | -7.76%

Row | Structure (SMILES) | growth inhibition
70 | O=c1c2cc([N+](=O)[O-])ccc2[nH]c2c([N+](=O)[O-])cc([N+](=O)[O-])cc12 | 30%
71 | CN(C)C(=O)Oc1noc2ccccc12 | 13.4%
72 | CC(NC(=O)COC(=O)C(O)(c1ccccc1)c1ccccc1)c1ccccc1 (centres undefined) | 9.48%
73 | Cc1ccccc1OP(=O)(Nc1ccccn1)Oc1ccccc1C | 3.49%
74 | CC(=O)NC(SC(=S)N(CC(C)C)CC(C)C)C(Cl)(Cl)Cl (centres undefined) | 1.87%
75 | Cc1ccc(OP(=O)(Nc2ccccn2)Oc2ccc(C)cc2)cc1 | 0.49%
76 | COC(=O)c1cc2c(s1)N=C(c1ccccc1)N(C)P2(=O)N1CCOCC1 (centres undefined) | -6.76%
77 | Cc1c([N+](=O)[O-])cc([N+](=O)[O-])c(Br)c1[N+](=O)[O-] | 5.2%
78 | CCC(=O)N1C2C3N(C(=O)CC)C1C1N(C(=O)CC)C(C(N1C(=O)CC)N3C(=O)CC)N2C(=O)CC | 7.37%
79 | CC1OP(=O)(Oc2ccccc2)CC2OC12 (centres undefined) | 5.36%
80 | CCN(CC)CCCOC(=O)C(O)(c1ccccc1)C1CCCCC1 (centres undefined) | 5.67%
81 | O=C(OC1CN2CCC1CC2)c1ccccc1 (centres undefined) | -6.33%
82 | CCOC(=O)c1ccc(NP(C)(=O)Oc2ccc(F)cc2)cc1 (centres undefined) | 9.71%
83 | O=P1(N(CCCl)CCCl)OCCC2CCCCN21 (centres undefined) | 4.28%
84 | COc1ccc(OP(C)(=O)Nc2ccc(SC(F)(F)F)cc2)cc1 (centres undefined) | 5.04%
85 | O=C(NC1CCS(=O)(=O)C1)NP(=S)(Oc1ccccc1)Oc1ccccc1 (centres undefined) | 0.645%
86 | Cc1ccc(NP(=O)(Oc2cccc(C)c2)Oc2cccc(C)c2)nc1 | -3.47%
87 | c1ccc(-c2nn[nH]n2)c(-c2nn[nH]n2)c1 | 10.5%
88 | Nc1ccc([As](=O)(O)c2ccc([N+](=O)[O-])cc2)cc1 | 25.9%
89 | Cc1c(C(c2ccc3c(c2)OCO3)c2c(C)n(C)n(-c3ccccc3)c2=O)c(=O)n(-c2ccccc2)n1C.O=[N+]([O-])c1cc([N+](=O)[O-])c(O)c([N+](=O)[O-])c1 | 6.17%
90 | O=[N+]([O-])c1ccc(O)c(C=NNc2ccc([N+](=O)[O-])cc2[N+](=O)[O-])c1 | 14.4%
91 | O=C(OC1CN2CCC1CC2)c1cccc(Cl)c1 (centres undefined) | 4.06%
92 | O=[N+]([O-])c1ccc(OP2(=O)COCCO2)cc1 (centres undefined) | 0.65%

Row | Structure (SMILES) | growth inhibition
93 | CC(=O)NC(SC(=S)N(C)C)C(Cl)(Cl)Cl (centres undefined) | 42.1%
94 | O=[N+]([O-])c1ncn(CCn2cnc([N+](=O)[O-])n2)n1 | 9.87%
95 | CN(C(=O)Cc1ccc(Cl)c(Cl)c1)C1CC[C@@]2(CCCO2)CC1N1CCCC1 (some centres undefined) | 2.16%
96 | Cc1cc(-c2cccc3ccccc23)c(C)cn1.O=[N+]([O-])c1cc([N+](=O)[O-])c(O)c([N+](=O)[O-])c1 | -1.7%
97 | O=[N+]([O-])c1cc([N+](=O)[O-])c(NCC2CCS(=O)(=O)C2)c([N+](=O)[O-])c1 (centres undefined) | -0.329%
98 | O=[As](O)(c1ccccc1)c1ccc(O)cc1 | 32.5%
99 | O=P(Nc1nc2ccccc2s1)(c1ccccc1)c1ccccc1 | 2.11%
100 | CCN(C(=NP(=O)(N1CCOCC1)N1CCOCC1)N1CCOCC1)c1ccc(OC)cc1 | 3.22%
101 | COc1ccc(NP(C)(=O)Oc2ccccc2OC)cc1 (centres undefined) | -1.54%
102 | COc1ccc(N)c([N+](=O)[O-])c1[N+](=O)[O-] | -3.56%
103 | CC(C)C=NN=C(N)N[N+](=O)[O-] | 7.38%
104 | COc1ccc(OP(C)(=O)Nc2cccc(Br)c2)cc1 (centres undefined) | 11.1%
105 | CN(C)C1(CNC(=O)c2ccc(Cl)c(S(N)(=O)=O)c2)CCCCC1 | 4.14%
106 | O=P(Nc1ccccn1)(c1ccc(Br)cc1)c1ccc(Br)cc1 | 4.43%
107 | C=CCN1CCN(CCOC(=O)C(O)(c2ccccc2)c2ccccc2)CC1 | 1.47%
108 | CCOP(C)(=S)SCC(=O)NC(C)(CC)C(=O)O (centres undefined) | -0.751%
109 | CP(=O)(Nc1ccc(SC(F)(F)F)cc1)Oc1ccc(F)cc1 (centres undefined) | 10.2%
110 | CCNC(=S)N=C(N)N[N+](=O)[O-] | -1.48%
111 | O=P(Nc1nccs1)(c1ccccc1)c1ccccc1 | -11.7%
112 | CC(C)C(=O)NC(Sc1ccccc1)C(Cl)(Cl)Cl (centres undefined) | -3.05%
113 | CC1(CBr)Cn2c(nc3ccccc3c2=O)S1 (centres undefined) | 1.14%
114 | O=[As](O)(c1ccccc1Br)c1ccccc1Br | 1.15%

— PubChem BioAssay AID1159583 (ICCB-Longwood Screening Facility, Harvard Medical School, 2016)
